Measured values taken from PubChem BioAssay AID493014 (National Center for Advancing Translational Sciences (NCATS), 2011).
Values joined by “and” are separate entries in the source; they are usually repeats but may differ in a detail not shown here. Identical values can stand only once. The list shows a part of the results. The main result of the screen is listed elsewhere. These columns were measured beside it and carry no call. Compounds called inactive in the main read-out are mostly missing here. Words in brackets tell the shape of the fitted curve; partial curves, single points and poor fits give uncertain potencies. Peptide text beside a SMILES is read from it. * marks the point of attachment. Cbz = O=C(OCc1ccccc1)*

Assay: qHTS Assay to Find Inhibitors of Chronic Active B-Cell Receptor Signaling
Conditions: ABC-DLBCL IkBa-CBG/CBR reporter, luminescence ratio (green luciferase fused to IkBa over red control in TMD8 lymphoma cells), 4 h
In short: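 TMD8 ABC-DLBCL cells carrying doxycycline-inducible green luciferase fused to IkappaBalpha plus unfused red luciferase were exposed to compounds (up to 46 uM) for 4 hrs at 37C. Activity came from the overlap-corrected green/red luminescence ratio.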

[1] = measured here: CBR red luminescence, cell number
[2] = measured here: IkBa-CBG green luminescence

Row | Structure (SMILES) | AC50 [1] | AC50 [2]
1 | CCOC(=O)c1sc(NC(C)=O)cc1C | 29.1 µM [rising, single point] | –
2 | CCn1c(/C=C/c2ccc(O)c(O)c2)nc2ccccc2c1=O | 11.2 µM [falling, partial curve, poor fit] | –
3 | CCNc1nc(Sc2ccc(C)cc2)cc(C(F)(F)F)n1 | 14.1 µM [rising, single point] | –
4 | Cc1ccc(NC(=O)CCOc2ccccc2)cc1 | 100 nM [rising, full curve, poor fit] and 6.31 µM [rising, single point] | –
5 | CCn1c(=O)cc(OCC(=O)NCc2cccnc2)c2ccccc21 | 35.5 µM [falling, single point] | –
6 | C=CCOC(=O)c1[nH]c2c(c1C)C(=O)CC(c1cc(OC)c(OC)c(OC)c1)C2 (configuration not stated) | 16.4 µM [falling, partial curve, poor fit] | –
7 | CN(C)S(=O)(=O)c1cccc(NC(=S)N/N=C/c2cccc(O)c2)c1 | 6.31 µM [falling, full curve] | –
8 | Cn1c(N)c(C(=O)COC(=O)c2ccccc2C(=O)c2ccc(Cl)c([N+](=O)[O-])c2)c(=O)n(C)c1=O | 25.9 µM [falling, single point] | –
9 | C=CCSc1nnc(Cn2c(=O)sc3ccccc32)n1C | 29.1 µM [rising, single point] | –
10 | O=C(c1ccc(F)cc1)c1cc2ccc(O)cc2oc1=O | 35.5 µM [falling, single point] | –
11 | Cc1ccc(NC(=O)Nc2c(Cl)cccc2Cl)cn1 | 0.708 µM [falling, partial curve, poor fit] | –
12 | COCCn1c(C)cc(/C=N/NC(=O)c2cc3ccccc3cc2O)c1C | 0.231 µM [rising, full curve, poor fit] | –
13 | O=C(CS(=O)(=O)Cc1ccccc1)Nc1nc2ccccc2s1 | 29.1 µM [falling, single point] | –
14 | COC(=O)c1cc(Br)c(=O)n(-c2ccccc2F)c1 | 3.16 µM [rising, full curve, poor fit] | –
15 | O=C(Cc1ccccc1)NCC(=O)N1CCCCCC1 | 16.4 µM [falling, single point] | –
16 | O=C(Nc1ncccc1O)c1ccc(NS(=O)(=O)c2ccc3[nH]c(=O)[nH]c3c2)cc1 | 10.3 µM [rising, partial curve, poor fit] | –
17 | CC(OC(=O)c1cccc(S(=O)(=O)N2CCOCC2)c1)C(=O)NC1CCCCC1C (configuration not stated) | 6.51 µM [rising, full curve] | –
18 | COc1ccc(/C(C)=N\NC(=O)c2ccc3c(c2)OCO3)cc1OC | 7.94 µM [falling, partial curve] | –
19 | CC(=O)Nc1ccc(NC(=O)Nc2ccccc2)cc1 | 2.82 µM [falling, full curve] | –
20 | Cc1cc(C(F)(F)F)c(C#N)c(SCC(=O)Nc2nc3ccccc3s2)n1 | 5.8 µM [falling, partial curve, poor fit] | –
21 | CCN(CC(=O)Nc1cc(Cl)ccc1C)C(=O)c1nc2nc(C)cc(C)n2n1 | 29.1 µM [rising, single point] | –

Row | Structure (SMILES) | AC50 [1] | AC50 [2]
22 | CCn1c(=O)c2sccc2n2c(CCCC(=O)NCCc3ccc(S(N)(=O)=O)cc3)nnc12 | 3.55 µM [rising, single point] | 6.31 µM [falling, partial curve, poor fit]
23 | CN(C)c1ccc(NC(=O)Nc2csc3ccccc23)cc1 | 11.2 µM [falling, partial curve, poor fit] | –
24 | COc1ccc(N2CCN(C(=O)Cc3ccc(Br)cc3)CC2)cc1 | 0.1 µM [rising, full curve, poor fit] | –
25 | O=C(NC1CCCCC1)c1n[nH]c2c1CCCCC2 | 0.326 µM [falling, full curve] | –
26 | CCN(CC)S(=O)(=O)c1cccc(C(=O)N[C@H](C(=O)NC2=NCCS2)C(C)C)c1 | 0.517 µM [rising, full curve, poor fit] | –
27 | CC(=O)c1c(C)[nH]c(C(=O)OCCOc2ccccc2)c1C | 0.1 µM [rising, full curve, poor fit] | –
28 | CC1CCN(S(=O)(=O)c2ccc3ccccc3c2)CC1 | 9.2 µM [rising, partial curve] | –
29 | O=C(Nn1c(C2CCCCC2)nc2ccccc2c1=O)c1ccc(Cl)c([N+](=O)[O-])c1 | 29.1 µM [falling, single point] | 18.4 µM [rising, partial curve, poor fit]
30 | Cc1cccc(NC(=O)Nc2ccc(F)cc2)n1 | 0.112 µM [rising, full curve, poor fit] | –
31 | C=CCn1c(SCc2ccc(C(=O)Nc3nccs3)cc2)nnc1-c1ccc(C)c(Cl)c1 | 20.6 µM [falling, partial curve] | 16.4 µM [rising, partial curve]
32 | Cc1nc2cc(C(=O)O)ccc2s1 | 1.41 µM [rising, full curve, poor fit] | –
33 | COc1ccc(NC(=O)C(C)N(c2ccc(C)cc2)S(C)(=O)=O)cc1 (configuration not stated) | 2.91 µM [rising, single point] | –
34 | O=C(Cn1nnc2ccccc21)NC1CCCCC1 | 35.5 µM [rising, partial curve, poor fit] | –
35 | N#CCSc1nnc(-c2ccccc2O)n1CCc1ccccc1 | 29.1 µM [falling, single point] | 18.4 µM [rising, partial curve, poor fit]
36 | O=C(NC1CCCCC1)C(c1ccccc1)N1CCCC1 (configuration not stated) | 6.51 µM [falling, single point] | –
37 | O=C(CN1CCN(CC(=O)Nc2ccc(-c3ccccc3)cc2)CC1)Nc1ccc(F)cc1 | 0.316 µM [falling, full curve, poor fit] | –
38 | CN(Cc1ccccc1F)Cc1cc(=O)oc2cc(O)c(Cl)cc12 | 1.26 µM [rising, full curve, poor fit] | –
39 | COc1cc(Br)cc2cc(C(=O)N3CCN(c4ccccn4)CC3)c(=O)oc12 | 0.146 µM [rising, full curve, poor fit] | –
40 | COC(=O)C(CO)NC(=O)C(C)NC(=O)CNC(=O)OCc1ccccc1 (stereo not drawn) (Cbz-Gly-Ala-Ser-OMe; configuration not given here) | 35.5 µM [rising, single point] | –
41 | CC(C)CN(CC(C)C)C(=O)CS(=O)(=O)Cc1ccccc1 | 1.3 µM [rising, full curve] | –
42 | O=c1[nH]c(CN2CCN(c3ccccc3)CC2)nc2ccccc12 | 20.6 µM [rising, single point] | –

Row | Structure (SMILES) | AC50 [1] | AC50 [2]
43 | CCOC(=O)c1cnn(-c2ccc(C(=O)Nc3ccc(OC(F)(F)F)cc3)cc2)c1N | 7.94 µM [rising, partial curve, poor fit] | –
44 | O=C(Nc1ccc(Br)cc1)Nc1cnccn1 | 1.26 µM [rising, full curve, poor fit] | –
45 | C=CCn1c(SCC(=O)O)nnc1-c1ccc(C(C)(C)C)cc1 | – | 11.2 µM [falling, partial curve, poor fit]
46 | CCc1cc2c(-c3ccccc3)cc(=O)oc2cc1OCC(=O)NCC1CCC(C(=O)O)CC1 (configuration not stated) | 3.55 µM [falling, partial curve, poor fit] | –
47 | O=C(NCCc1ccccc1)c1ccccc1Cl | 22.4 µM [falling, single point] | –
48 | CC1CCc2nn(CC(=O)NC3CCCC(C)C3C)cc2C1 (configuration not stated) | 6.51 µM [rising, single point] | –
49 | Nc1ccc(N2CCN(c3ccccc3)CC2)c(F)c1 | 35.5 µM [rising, partial curve, poor fit] | –
50 | CCCCCSc1ncccc1C(=O)O | 0.631 µM [rising, full curve] | –
51 | COc1cccc(NC(=S)N(CCc2ccc(OC)c(OC)c2)Cc2ccccn2)c1 | 1.58 µM [rising, partial curve, poor fit] | –
52 | CN(C)S(=O)(=O)c1cccc(-c2csc(=Nc3ccccc3)n2CCCN2CCOCC2)c1 | 7.94 µM [falling, partial curve, poor fit] | –
53 | Cc1ccc(N2CCN(S(=O)(=O)c3ccc4oc(=O)ccc4c3)CC2)c(C)c1 | 22.4 µM [falling, single point] | –
54 | CCOC(=O)C1CCCN(Cc2cc(=O)oc3cc(C)ccc23)C1 (configuration not stated) | 35.5 µM [falling, single point] | –
55 | Fc1ccccc1N1CCN(Cc2nc(-c3ccc(Cl)cc3Cl)no2)CC1 | 32.6 µM [rising, single point] | –
56 | COc1ccc(S(=O)(=O)NCC2CCCN(C(=O)CC3CCCC3)C2)cc1 (configuration not stated) | 11.2 µM [rising, partial curve, poor fit] | –
57 | CCC(CC)COC(=O)C1=C(C)NC(=O)NC1c1cccc([N+](=O)[O-])c1 (configuration not stated) | 11.2 µM [falling, single point] | –
58 | Cc1cc2c(s1)c1cnn(-c3ccccc3)c(=O)c1n2C | 0.411 µM [rising, partial curve, poor fit] | –
59 | COc1cc(C(=O)N/N=C/c2ccccn2)cc(OC)c1OC | 31.6 µM [rising, single point] | 22.4 µM [falling, single point]
60 | COc1cccc(-c2ccc(NC(=O)C3CCCN(Cc4cnn(C(C)C)c4)C3)cc2)c1 (configuration not stated) | 12.6 µM [falling, partial curve] | –
61 | COc1ccc(N(C(=O)CCl)C(C(=O)NCCc2ccccc2)c2cccs2)cc1Cl (configuration not stated) | 11.6 µM [falling, partial curve] | –
62 | CC(C)(C)n1cnc2cc(NCc3cccs3)ccc21 | 14.1 µM [falling, single point] | –
